Test results published in patent publication US20040132094A1 (ANAPHORE, published 2004).
Results are given in words; binding and its absence hold for the method and conditions named. Some binding calls cover weakened binding; strength is not graded here. For some assays here: Tags and fused reporters may be left off the sequences shown.

Protein sequences, listed by entry. Tags and fused reporters are not part of them. Residues count along the entry.
UniProt P00747, residues 20-810: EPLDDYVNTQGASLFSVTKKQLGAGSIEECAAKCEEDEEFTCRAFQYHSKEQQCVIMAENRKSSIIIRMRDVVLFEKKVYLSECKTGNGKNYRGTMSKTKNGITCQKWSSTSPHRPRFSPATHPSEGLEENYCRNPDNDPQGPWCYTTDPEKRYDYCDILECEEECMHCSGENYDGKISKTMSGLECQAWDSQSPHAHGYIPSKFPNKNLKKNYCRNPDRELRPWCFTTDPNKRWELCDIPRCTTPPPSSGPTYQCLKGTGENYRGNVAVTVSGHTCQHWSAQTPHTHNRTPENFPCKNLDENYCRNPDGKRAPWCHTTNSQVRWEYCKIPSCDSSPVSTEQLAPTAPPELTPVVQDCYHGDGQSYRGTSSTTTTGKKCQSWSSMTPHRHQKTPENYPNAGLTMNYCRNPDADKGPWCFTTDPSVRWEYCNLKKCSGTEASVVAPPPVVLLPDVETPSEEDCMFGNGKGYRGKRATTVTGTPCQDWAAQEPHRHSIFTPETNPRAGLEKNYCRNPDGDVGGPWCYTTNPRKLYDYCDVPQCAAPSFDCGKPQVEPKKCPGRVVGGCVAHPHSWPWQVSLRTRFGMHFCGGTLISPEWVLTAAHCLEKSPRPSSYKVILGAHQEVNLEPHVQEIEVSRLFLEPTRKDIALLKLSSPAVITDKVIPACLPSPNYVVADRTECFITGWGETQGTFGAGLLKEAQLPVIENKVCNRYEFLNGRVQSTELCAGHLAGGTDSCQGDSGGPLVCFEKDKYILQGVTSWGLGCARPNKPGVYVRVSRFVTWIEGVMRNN

Key:
[1] = target: human plasminogen (human) (UniProt P00747); assay: phage ELISA on coated plasminogen, populations from selection round 2, HRP anti-gene VIII detection
[2] = target: human plasminogen (human) (UniProt P00747); assay: phage ELISA on coated human plasminogen

B1: PhtCTLD phage (PhtCTLD-gene III fusion protein displayed on recombinant phage) (protein, not shown: large carriers)
chain: PAMAALQTVVLKGTKVHMKVFLAFTQTKTFHEASEDCISRGGTLSTPQTGSENDALYEYLRQSVGNEAEIWLGLNDMAAEGTWVDMTGTRIAYKNWETEITAQPDGGKTENCAVLSGAANGKWFDKRCRDQLPYICQFGIVA
[1]
  binding: binds

B2: Phtlec phage (Phtlec-gene III fusion protein displayed on recombinant phage) (other)
chain: PAMAEPPTQKPKKIVNAKKDVVNTKMFEELKSRLDTLAQEVALLKEQQALQTVVLKGTKVHMKVFLAFTQTKTFHEASEDCISRGGTLSTPQTGSENDALYEYLRQSVGNEAEIWLGLNDMAAEGTWVDMTGTRIAYKNWETEITAQPDGGKTENCAVLSGAANGKWFDKRCRDQLPYICQFGIVA
notes: Tested as whole phage particles rescued with M13KO7; claim 15 says htlec itself is position 5 Glu to 185 Val of it; also called human Phtlec phages; Phlec; not shown: phage gene III protein fused after the Phtlec part, as encoded by phagemid pCANTAB 5E; limits and any tag in between not
[2]
  binding: binds
